This is one part of the list. Further columns of the screen follow, without active or inactive calls. Most of these compounds were active or inconclusive in the main read-out, so they are no random draw. Words in brackets tell the shape of the fitted curve; partial curves, single points and poor fits give uncertain potencies.
Test: qHTS Assay for Lipid Storage Modulators in Drosophila S3 Cells;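 on cell number change: cells counted by Cell Tracker Red CMTPX staining in the red channel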
Details: BODIPY lipid droplet fluorescence, 18-24 h; for cell number change: measured here: cell count max response, cells fed with added oleic acid
How it was run: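 Drosophila S3 cells loaded with oleic acid (400 uM, as added) and compounds at several concentrations; lipid droplets imaged by 488-nm laser-scanning cytometry, 500–530 nm intensity and object ratio to cell channel. Percent activity normalized to 20 uM Triacsin C.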

[1] = measured here: lipid fluorescence (Fed channel) AC50, cells fed with added oleic acid
[2] = measured here: cell number channel AC50, cells fed with added oleic acid

## COCC(=O)N(Cc1cc2cc(OC)ccc2[nH]c1=O)c1ccc(C)cc1
  cell number change: -14.8%
[1]
  AC50: 0.58 µM [falling, partial curve]

## Cc1ccc(-c2nc(CN(CC3CCC3)CC3CCCO3)c(C)o2)s1 (stereo not given)
  cell number change: -16.1%
[1]
  AC50: 0.103 µM [falling, full curve, poor fit]

## COc1ccccc1NC(=O)CSCc1cc(=O)n2c(C)csc2n1
  cell number change: -13.4%
[1]
  AC50: 0.731 µM [falling, single point]

## CCc1cc(C(=O)N/N=C/c2c(C)[nH]c3ccccc23)cs1
  cell number change: 32.7%
[2]
  AC50: 2.91 µM [rising, partial curve]
[1]
  AC50: 1.84 µM [rising, partial curve]

## COc1ccc(-c2[nH]ncc2CN(C)Cc2nonc2C)c(OC)c1
  cell number change: 23.6%
[1]
  AC50: 5.17 µM [rising, partial curve]

## COC(=O)Nc1ccc(S(=O)(=O)N2CCN(CCN3C(=O)C4C5C=CC(C5)C4C3=O)CC2)cc1 (stereo not given)
  cell number change: 40.1%

## COc1ccc(CCNC(=O)CN(c2cccc([N+](=O)[O-])c2)S(C)(=O)=O)cc1OC
  cell number change: 117%
[2]
  AC50: 20.6 µM [rising, partial curve]
[1]
  AC50: 20.6 µM [rising, partial curve]

## CC1(C)CC(=O)C=C(NCCN2CCNCC2)C1
  cell number change: -24.8%
[2]
  AC50: 0.13 µM [falling, full curve, poor fit]
[1]
  AC50: 1.46 µM [falling, full curve, poor fit]

## CN(C)S(=O)(=O)c1cccc(COC(=O)CNC(=O)c2ccc(Br)o2)c1
  cell number change: 12.4%
[1]
  AC50: 2.06 µM [falling, single point]

## CCN1N=C(c2ccccc2)Cn2c1nc1ccccc12
[2]
  AC50: 1.16 µM [rising, partial curve]
[1]
  AC50: 0.517 µM [rising, full curve]

## O=C(CSc1ccc(Cl)cc1)NC(=O)c1ccccc1
  cell number change: -42.9%
[2]
  AC50: 0.82 µM [falling, full curve]
[1]
  AC50: 0.517 µM [falling, full curve]

## COC(=O)c1cc2oc3ccccc3c2n1CC(=O)Nc1ccccc1OC
[1]
  AC50: 0.58 µM [rising, full curve, poor fit]

## COc1cc(S(=O)(=O)N(C)C)ccc1Br
  cell number change: -10.1%
[1]
  AC50: 23.1 µM [falling, partial curve]

## CC(=O)NNC(=S)NC(=O)C(c1ccccc1)c1ccccc1
  cell number change: -28%
[1]
  AC50: 0.411 µM [falling, partial curve]

## O=C(Nc1ccc(S(=O)(=O)Nc2nccs2)cc1)c1cccc(F)c1
  cell number change: 16.7%

## COc1ccc(Nc2nc(NCC3CCCO3)c3ccccc3n2)c(OC)c1 (stereo not given)
  cell number change: -48.7%
[2]
  AC50: 18.4 µM [falling, single point]

## O=C(NCCN1CCOCC1)c1ccc(/C=C2\Sc3ccccc3N(Cc3ccccc3F)C2=O)cc1
  cell number change: -11.1%

## COc1ccc(C(CNC(=O)CSc2ccccc2C)N(C)C)cc1 (stereo not given)
  cell number change: 16.9%
[1]
  AC50: 3.26 µM [falling, single point]

## CCCCCn1c(=O)[nH]c2cc(C(=O)NCCN3CCC(C)CC3)ccc2c1=O
  cell number change: -0.855%

## COc1ccc(N(CC(=O)N/N=C/c2cccs2)S(=O)(=O)c2ccc(OC)c(OC)c2)cc1
  cell number change: 18.1%
[1]
  AC50: 29.1 µM [falling, single point]

## Cc1ccc2nc(SC(C(=O)Nc3ccc(F)cc3)c3ccccc3)[nH]c2c1 (stereo not given)
  cell number change: -29%
[1]
  AC50: 20.6 µM [falling, single point]

## CCOc1ccccc1CNC(=O)CN1C(=O)CSc2ccc(S(=O)(=O)N3CCOCC3)cc21
  cell number change: -23.6%
[1]
  AC50: 29.1 µM [rising, single point]

## CCc1ccc(-c2cc(C(=O)Nn3cnnc3)c3ccccc3n2)cc1
  cell number change: 30.1%
[2]
  AC50: 13 µM [rising, single point]
[1]
  AC50: 16.4 µM [rising, partial curve]

## CC1CN(C(=O)c2cccc(Oc3ccccc3)c2)CC(C)O1 (stereo not given)
  cell number change: -19.9%

## Cc1cc(C)cc(OCC(=O)Nc2nc(-c3cccnc3)cs2)c1
  cell number change: -40.5%
[2]
  AC50: 35.5 µM [falling, single point]
[1]
  AC50: 12.6 µM [falling, single point]

## Cn1c(CCN2CCOCC2)nc2cc(NC(=O)c3cccs3)ccc21
  cell number change: -14.8%
[1]
  AC50: 3.26 µM [falling, full curve]

## COc1ccc(S(=O)(=O)N2CCC(C(=O)Nc3nnc(CCN4CCCCC4)s3)CC2)cc1
  cell number change: 6.54%

## CC(=O)c1cc(C#N)c(N2CC(C)OC(C)C2)nc1C (stereo not given)
  cell number change: -1.81%
[1]
  AC50: 1.64 µM [rising, partial curve]

## C/C(=N\OCC(=O)OCC(=O)Nc1cc(S(C)(=O)=O)ccc1Cl)c1ccc2c(c1)OCO2
  cell number change: -7.42%
[1]
  AC50: 0.00461 µM [rising, full curve, poor fit]

## Cc1ccc(NC2CCCN(C(=O)c3ccc4nccnc4c3)C2)cc1C (stereo not given)
  cell number change: 14.7%
[1]
  AC50: 18.4 µM [rising, single point]

## COc1ccc(NC(=O)CN(C)S(=O)(=O)c2ccccc2)cc1
[2]
  AC50: 1.84 µM [falling, partial curve]
[1]
  AC50: 14.6 µM [falling, partial curve]

## CCOC(=O)CNc1nc2ccccc2n2c(C)nnc12
  cell number change: 8.31%

## COc1cccc(/C=N/n2c(COc3ccccc3)n[nH]c2=S)c1OC
  cell number change: 12.5%
[1]
  AC50: 29.1 µM [falling, single point]

## CCOC(=O)C1CCN(C(=O)CNC(=O)Cn2c(C)cc3ccccc3c2=O)CC1
  cell number change: -1.59%
[1]
  AC50: 29.1 µM [falling, single point]

## Cc1ccc(NC(=O)[C@H](NC(=O)[C@@H]2Cc3ccccc3CN2)c2ccccc2)c(C)c1
  cell number change: -8.94%
[1]
  AC50: 29.1 µM [rising, single point]

## CSc1nc(Cl)cc(=O)[nH]1
  cell number change: 48.6%
[2]
  AC50: 2.31 µM [rising, partial curve]

## COc1ccc(CCNC(=O)c2cc3sc(Cl)cc3n2C)cc1OC
  cell number change: -13.1%
[1]
  AC50: 16.4 µM [falling, single point]

## C/C(CC(=O)Nc1cc(Cl)ccc1C)=N\NC(=O)C(=O)N1CCCC1
  cell number change: 64.1%
[2]
  AC50: 11.6 µM [rising, partial curve, poor fit]
[1]
  AC50: 1.46 µM [rising, full curve]

## CCOc1ccccc1NC(=O)C1CCN(S(=O)(=O)c2c(C)noc2C)CC1
  cell number change: -87.2%
[2]
  AC50: 25.9 µM [falling, partial curve, poor fit]
[1]
  AC50: 20.6 µM [falling, partial curve]

## CCC(=O)N(Cc1cc2ccc(C)cc2[nH]c1=O)c1ccccc1OC
  cell number change: 18.4%
[1]
  AC50: 9.2 µM [rising, partial curve]

## C/C(=N\NC(=O)CCc1c[nH]c2ccccc12)c1ccc([N+](=O)[O-])cc1
  cell number change: 7.41%
[2]
  AC50: 0.651 µM [falling, single point]
[1]
  AC50: 18.4 µM [falling, partial curve]

## Cc1ccc(C)c(N2CCN(C(=O)C(Cc3ccccc3)n3cccc3)CC2)c1 (stereo not given)
  cell number change: 9.08%
[1]
  AC50: 0.116 µM [rising, full curve]

## O=C(COc1ccc(C2SCCS2)cc1)Nc1ccc(Cl)cc1
  cell number change: -3.53%
[1]
  AC50: 0.366 µM [falling, partial curve, poor fit]

## Cc1nnc(NCc2ccccc2)c2ccccc12
  cell number change: -11.4%
[1]
  AC50: 6.51 µM [rising, single point]

## Cc1nc(SCC(=O)N2CCN(C(=O)c3cccs3)CC2)c2c(C)c(C)sc2n1
  cell number change: -7%

## CCCCCN(C(=O)COC(=O)c1ccc(C)cc1)c1c(N)n(CCCC)c(=O)[nH]c1=O
  cell number change: -25.9%
[2]
  AC50: 0.146 µM [falling, full curve, poor fit]
[1]
  AC50: 1.16 µM [falling, full curve]

## Cc1cc[n+](-c2ccccc2)c2ccccc12
  cell number change: -59.7%

## Cc1nc(SCC(=O)NC(C)(C)C)c2c(-c3cccs3)csc2n1
  cell number change: -4.16%
[2]
  AC50: 0.411 µM [rising, partial curve, poor fit]
[1]
  AC50: 18.4 µM [rising, partial curve]

## Cc1nc2c(C)cccc2c2c1CCS2
  cell number change: -1.55%

## CC1=NOC(=O)/C1=C\c1ccc(-c2ccc(Br)cc2)o1
  cell number change: -65.4%
[2]
  AC50: 29.1 µM [falling, single point]
[1]
  AC50: 23.1 µM [falling, single point]

## Cc1ccc(CSCc2ccc(C(=O)NC3CC3)o2)cc1
  cell number change: 6.6%
[2]
  AC50: 6.51 µM [falling, partial curve, poor fit]
[1]
  AC50: 18.4 µM [falling, partial curve]

## CCN1CCN(CCCNc2ncnc3nc[nH]c23)CC1
  cell number change: -8.59%
[1]
  AC50: 14.6 µM [falling, partial curve]

## O=S1(=O)C=C(Sc2nc3ccccc3s2)c2ccccc21
  cell number change: -89.2%
[2]
  AC50: 14.6 µM [falling, partial curve]
[1]
  AC50: 2.59 µM [rising, single point]

## CC1(C)Cc2nc3sc4c(SCC(=O)NCc5ccccc5)ncnc4c3cc2CO1
  cell number change: 111%
[2]
  AC50: 16.4 µM [rising, single point]

## CC1(CC(=O)N/N=C/c2ccc(OCc3ccc(Cl)cc3Cl)cc2)OCCCO1
  cell number change: 9.6%
[1]
  AC50: 25.9 µM [rising, single point]

## Cc1ccc(C(=O)NCC(=O)NC2CCCCCC2)cc1
  cell number change: -6.35%
[1]
  AC50: 8.2 µM [rising, partial curve]

## S=c1[nH]ccn1-c1c(Cl)cccc1Cl
[1]
  AC50: 5.8 µM [rising, partial curve, poor fit]

## CN1CCN(c2ccc([N+](=O)[O-])cc2/C=N/NC(=O)c2cccc([N+](=O)[O-])c2)CC1
  cell number change: 3.29%
[1]
  AC50: 14.6 µM [falling, single point]

## CC(=O)Nc1ccc(Sc2ccccc2C(=O)N2CCCC2)cn1
  cell number change: 68.8%
[2]
  AC50: 29.1 µM [rising, single point]
